The list shows a part of the results.
Columns and labels:
Experiment in all cases: log2 fold change, soluble protein after heating vs DMSO (PISA); higher = thermal stabilisation; K562 lysate, 10 uM; active = over 0.2 and 3.5 SD of the protein, either way, in both replicates (recomputed)
lapatinib = compound: CS(=O)(=O)CCNCc1ccc(-c2ccc3ncnc(Nc4ccc(OCc5cccc(F)c5)c(Cl)c4)c3c2)o1 [lapatinib]
In short: (§1)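 A 30 min treatment with 10 μM compound was applied to crude K562 extract at 1 mg/mL protein in PBS pH 7.4 with 1 mM MgCl2. Heating for 3 min spanned 48°C-58°C, after which aliquots were pooled, adjusted to 0.5% NP-40 at 4°C and spun at 21,000xg for 90 min. TMTpro 16plex LC-MS/MS of the supernatant, with channel sums equalised, gave values recorded as log-two fold change in thermal stability against solvent controls, from duplicates.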

Chains of the proteins cited; added tags and fusions are not shown. Lines headed by an entry give the natural chain unless they say otherwise; changes in a name come on top.
UniProt Q96QZ7: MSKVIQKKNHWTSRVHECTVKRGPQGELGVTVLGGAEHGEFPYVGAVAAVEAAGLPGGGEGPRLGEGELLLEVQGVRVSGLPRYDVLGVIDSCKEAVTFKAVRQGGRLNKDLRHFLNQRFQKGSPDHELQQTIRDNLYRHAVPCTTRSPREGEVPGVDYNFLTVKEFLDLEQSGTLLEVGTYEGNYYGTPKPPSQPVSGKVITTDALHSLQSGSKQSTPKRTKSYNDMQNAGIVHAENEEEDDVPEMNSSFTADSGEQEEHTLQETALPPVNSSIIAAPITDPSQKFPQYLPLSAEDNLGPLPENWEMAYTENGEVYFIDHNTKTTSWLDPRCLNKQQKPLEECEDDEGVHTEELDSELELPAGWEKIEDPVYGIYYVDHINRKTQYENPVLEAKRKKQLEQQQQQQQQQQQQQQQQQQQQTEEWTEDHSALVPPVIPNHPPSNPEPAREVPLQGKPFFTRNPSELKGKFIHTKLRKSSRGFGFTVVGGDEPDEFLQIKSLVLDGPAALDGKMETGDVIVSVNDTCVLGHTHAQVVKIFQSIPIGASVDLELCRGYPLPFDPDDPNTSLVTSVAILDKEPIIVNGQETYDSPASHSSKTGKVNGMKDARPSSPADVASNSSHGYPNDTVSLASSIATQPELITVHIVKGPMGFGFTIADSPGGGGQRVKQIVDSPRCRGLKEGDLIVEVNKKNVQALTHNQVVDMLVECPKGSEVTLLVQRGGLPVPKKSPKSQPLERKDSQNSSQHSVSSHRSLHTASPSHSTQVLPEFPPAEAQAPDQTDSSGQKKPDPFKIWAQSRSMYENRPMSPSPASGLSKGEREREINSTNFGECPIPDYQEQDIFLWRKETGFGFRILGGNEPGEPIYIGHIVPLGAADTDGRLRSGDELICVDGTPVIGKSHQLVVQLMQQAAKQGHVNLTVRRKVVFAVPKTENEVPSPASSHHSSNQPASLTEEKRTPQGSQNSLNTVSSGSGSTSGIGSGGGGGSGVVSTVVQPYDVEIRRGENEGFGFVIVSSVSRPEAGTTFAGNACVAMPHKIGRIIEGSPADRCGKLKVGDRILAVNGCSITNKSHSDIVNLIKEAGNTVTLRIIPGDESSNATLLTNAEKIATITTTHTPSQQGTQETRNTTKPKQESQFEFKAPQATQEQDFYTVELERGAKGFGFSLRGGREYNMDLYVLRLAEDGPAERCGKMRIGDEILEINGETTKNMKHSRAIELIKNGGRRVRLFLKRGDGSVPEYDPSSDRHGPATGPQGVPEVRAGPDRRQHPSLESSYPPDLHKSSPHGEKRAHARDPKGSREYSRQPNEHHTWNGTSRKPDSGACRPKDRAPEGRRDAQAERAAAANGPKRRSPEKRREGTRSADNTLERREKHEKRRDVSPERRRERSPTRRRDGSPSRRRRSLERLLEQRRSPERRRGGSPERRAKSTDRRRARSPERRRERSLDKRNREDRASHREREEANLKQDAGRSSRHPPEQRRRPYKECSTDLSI
UniProt Q5VWZ2: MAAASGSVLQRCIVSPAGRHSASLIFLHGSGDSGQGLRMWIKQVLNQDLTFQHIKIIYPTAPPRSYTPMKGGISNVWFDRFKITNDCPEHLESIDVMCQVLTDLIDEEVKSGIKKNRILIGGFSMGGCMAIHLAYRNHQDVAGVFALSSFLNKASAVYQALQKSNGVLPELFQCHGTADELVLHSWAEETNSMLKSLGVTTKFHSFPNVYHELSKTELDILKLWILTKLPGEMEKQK
UniProt Q8N5G2: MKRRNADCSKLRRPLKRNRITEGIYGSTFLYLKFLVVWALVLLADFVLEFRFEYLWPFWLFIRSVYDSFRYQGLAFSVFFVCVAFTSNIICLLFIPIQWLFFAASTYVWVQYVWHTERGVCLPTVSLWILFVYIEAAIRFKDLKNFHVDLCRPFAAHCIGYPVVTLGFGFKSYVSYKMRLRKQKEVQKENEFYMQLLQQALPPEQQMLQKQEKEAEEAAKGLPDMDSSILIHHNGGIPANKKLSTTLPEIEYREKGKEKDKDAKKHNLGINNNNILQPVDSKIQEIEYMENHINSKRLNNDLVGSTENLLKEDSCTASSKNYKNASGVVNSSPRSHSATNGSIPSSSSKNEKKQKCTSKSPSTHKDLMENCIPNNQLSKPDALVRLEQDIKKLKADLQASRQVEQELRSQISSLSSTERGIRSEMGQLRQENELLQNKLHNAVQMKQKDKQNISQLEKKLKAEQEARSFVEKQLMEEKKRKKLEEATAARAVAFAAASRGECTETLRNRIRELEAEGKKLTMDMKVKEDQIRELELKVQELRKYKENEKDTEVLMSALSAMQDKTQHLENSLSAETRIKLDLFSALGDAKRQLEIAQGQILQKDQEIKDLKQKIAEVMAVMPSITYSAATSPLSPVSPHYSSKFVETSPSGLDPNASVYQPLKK
UniProt Q14244: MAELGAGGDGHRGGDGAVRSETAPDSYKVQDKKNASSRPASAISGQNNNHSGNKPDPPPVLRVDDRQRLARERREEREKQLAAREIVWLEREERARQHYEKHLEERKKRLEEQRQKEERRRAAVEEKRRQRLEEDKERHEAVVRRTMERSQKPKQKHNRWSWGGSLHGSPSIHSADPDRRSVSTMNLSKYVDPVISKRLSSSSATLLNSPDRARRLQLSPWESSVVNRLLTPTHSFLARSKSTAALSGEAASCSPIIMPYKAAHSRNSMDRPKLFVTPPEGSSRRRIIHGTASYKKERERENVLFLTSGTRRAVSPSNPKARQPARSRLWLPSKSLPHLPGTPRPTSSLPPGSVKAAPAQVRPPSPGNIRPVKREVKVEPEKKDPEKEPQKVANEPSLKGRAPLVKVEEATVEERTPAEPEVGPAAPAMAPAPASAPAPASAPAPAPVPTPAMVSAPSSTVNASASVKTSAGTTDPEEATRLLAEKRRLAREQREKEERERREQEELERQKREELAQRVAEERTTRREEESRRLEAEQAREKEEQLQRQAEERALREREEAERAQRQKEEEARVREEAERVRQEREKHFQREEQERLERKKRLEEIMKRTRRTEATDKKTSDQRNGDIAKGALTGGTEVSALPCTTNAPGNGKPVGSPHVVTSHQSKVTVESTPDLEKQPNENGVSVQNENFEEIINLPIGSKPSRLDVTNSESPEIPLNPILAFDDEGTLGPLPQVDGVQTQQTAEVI
UniProt Q9Y2E5: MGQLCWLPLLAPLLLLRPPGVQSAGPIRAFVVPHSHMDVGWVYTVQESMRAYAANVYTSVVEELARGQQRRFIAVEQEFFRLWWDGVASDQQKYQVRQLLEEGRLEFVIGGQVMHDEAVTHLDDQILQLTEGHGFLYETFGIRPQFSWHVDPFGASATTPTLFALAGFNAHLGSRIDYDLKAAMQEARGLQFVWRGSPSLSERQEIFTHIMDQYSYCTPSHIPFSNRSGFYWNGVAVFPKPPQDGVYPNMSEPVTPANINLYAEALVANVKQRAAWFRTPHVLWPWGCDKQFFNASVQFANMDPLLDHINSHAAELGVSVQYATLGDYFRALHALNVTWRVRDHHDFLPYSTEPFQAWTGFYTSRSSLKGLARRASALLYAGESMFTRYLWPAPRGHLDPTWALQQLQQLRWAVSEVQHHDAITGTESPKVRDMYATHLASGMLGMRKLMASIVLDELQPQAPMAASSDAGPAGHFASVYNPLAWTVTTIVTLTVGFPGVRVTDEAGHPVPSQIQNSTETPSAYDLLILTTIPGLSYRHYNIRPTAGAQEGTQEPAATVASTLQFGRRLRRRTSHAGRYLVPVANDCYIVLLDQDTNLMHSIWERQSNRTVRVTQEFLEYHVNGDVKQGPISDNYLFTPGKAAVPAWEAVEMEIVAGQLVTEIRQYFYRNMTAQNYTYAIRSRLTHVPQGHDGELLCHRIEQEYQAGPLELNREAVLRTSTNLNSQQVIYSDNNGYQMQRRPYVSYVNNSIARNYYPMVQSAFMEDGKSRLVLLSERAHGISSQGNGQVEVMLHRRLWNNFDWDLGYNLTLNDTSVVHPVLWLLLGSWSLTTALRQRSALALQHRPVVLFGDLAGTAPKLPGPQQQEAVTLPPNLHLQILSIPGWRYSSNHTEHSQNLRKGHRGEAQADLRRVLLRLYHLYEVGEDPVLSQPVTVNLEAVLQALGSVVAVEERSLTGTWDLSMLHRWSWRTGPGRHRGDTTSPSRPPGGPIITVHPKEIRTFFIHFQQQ
UniProt Q3KQU3: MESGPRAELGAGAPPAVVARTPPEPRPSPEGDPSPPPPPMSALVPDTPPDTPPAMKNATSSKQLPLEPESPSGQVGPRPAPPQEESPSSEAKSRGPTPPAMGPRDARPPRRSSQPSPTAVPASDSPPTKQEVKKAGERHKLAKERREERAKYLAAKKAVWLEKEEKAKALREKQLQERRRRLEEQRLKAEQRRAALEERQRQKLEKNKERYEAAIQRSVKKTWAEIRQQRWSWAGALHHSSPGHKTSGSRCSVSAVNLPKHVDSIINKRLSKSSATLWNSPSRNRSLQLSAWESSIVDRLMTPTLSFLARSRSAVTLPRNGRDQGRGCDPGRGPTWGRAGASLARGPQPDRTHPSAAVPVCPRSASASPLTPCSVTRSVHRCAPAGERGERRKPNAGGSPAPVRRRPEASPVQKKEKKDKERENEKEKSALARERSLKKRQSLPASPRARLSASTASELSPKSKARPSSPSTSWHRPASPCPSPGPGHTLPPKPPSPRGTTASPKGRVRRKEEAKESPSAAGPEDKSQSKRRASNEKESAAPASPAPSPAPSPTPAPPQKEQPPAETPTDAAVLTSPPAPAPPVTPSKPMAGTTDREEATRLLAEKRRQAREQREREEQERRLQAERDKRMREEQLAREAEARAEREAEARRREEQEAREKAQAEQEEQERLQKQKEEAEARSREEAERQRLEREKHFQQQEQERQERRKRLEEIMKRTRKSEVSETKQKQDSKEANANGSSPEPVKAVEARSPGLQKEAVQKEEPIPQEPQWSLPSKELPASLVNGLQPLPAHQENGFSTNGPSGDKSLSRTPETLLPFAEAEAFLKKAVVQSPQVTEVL
UniProt O43318: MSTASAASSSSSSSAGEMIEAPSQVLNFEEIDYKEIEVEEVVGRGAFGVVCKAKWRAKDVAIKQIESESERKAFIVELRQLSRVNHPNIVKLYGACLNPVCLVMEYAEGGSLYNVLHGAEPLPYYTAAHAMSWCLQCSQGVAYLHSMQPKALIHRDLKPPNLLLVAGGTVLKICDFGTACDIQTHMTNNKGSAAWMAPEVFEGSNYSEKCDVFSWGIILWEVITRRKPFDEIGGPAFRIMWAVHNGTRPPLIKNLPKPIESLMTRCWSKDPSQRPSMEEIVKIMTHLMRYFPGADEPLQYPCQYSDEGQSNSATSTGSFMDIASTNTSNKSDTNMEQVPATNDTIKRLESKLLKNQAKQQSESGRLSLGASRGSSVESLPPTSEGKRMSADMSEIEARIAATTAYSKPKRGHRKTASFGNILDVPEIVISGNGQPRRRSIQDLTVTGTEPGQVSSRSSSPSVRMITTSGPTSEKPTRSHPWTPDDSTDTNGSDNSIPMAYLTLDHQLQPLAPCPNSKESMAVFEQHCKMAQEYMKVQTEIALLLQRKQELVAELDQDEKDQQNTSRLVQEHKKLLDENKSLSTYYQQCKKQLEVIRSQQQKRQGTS
UniProt Q8IWC1: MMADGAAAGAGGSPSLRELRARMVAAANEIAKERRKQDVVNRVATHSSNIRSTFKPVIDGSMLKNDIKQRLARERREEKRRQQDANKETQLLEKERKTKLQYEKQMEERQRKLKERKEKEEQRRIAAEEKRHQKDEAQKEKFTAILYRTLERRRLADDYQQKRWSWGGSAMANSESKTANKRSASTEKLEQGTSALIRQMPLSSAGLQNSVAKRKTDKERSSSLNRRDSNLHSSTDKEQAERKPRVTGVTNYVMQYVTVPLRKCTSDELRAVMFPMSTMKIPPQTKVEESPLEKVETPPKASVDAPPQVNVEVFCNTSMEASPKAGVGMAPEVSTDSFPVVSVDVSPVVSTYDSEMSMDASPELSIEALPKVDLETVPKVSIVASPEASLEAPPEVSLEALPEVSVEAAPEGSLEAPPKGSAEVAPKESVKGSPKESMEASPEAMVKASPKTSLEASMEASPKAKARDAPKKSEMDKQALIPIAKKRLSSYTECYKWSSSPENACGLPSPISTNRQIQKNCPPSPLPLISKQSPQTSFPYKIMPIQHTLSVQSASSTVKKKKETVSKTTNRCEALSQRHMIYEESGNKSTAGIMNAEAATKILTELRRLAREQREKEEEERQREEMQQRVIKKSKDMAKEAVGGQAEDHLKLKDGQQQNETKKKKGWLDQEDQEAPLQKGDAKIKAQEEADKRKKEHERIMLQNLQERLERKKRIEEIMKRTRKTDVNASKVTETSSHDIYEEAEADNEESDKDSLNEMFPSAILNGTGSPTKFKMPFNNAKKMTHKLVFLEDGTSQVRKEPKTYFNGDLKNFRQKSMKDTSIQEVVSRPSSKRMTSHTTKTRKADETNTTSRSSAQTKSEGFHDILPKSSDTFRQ

pictilisib = compound: CS(=O)(=O)N1CCN(Cc2cc3nc(-c4cccc5[nH]ncc45)nc(N4CCOCC4)c3s2)CC1 [pictilisib]
In short: as §1

crizotinib = compound: C[C@@H](Oc1cc(-c2cnn(C3CCNCC3)c2)cnc1N)c1c(Cl)ccc(F)c1Cl [crizotinib]
In short: as §1

[1] = compound: C[C@H](C1=CC=C(C=C1)C(=O)NC2=C3C=CNC3=NC=C2)N
In short: as §1

duvelisib = compound: C[C@H](Nc1ncnc2nc[nH]c12)c1cc2cccc(Cl)c2c(=O)n1-c1ccccc1 [duvelisib]
In short: as §1

gandotinib = compound: Cc1cc(Nc2cc(CN3CCOCC3)c3nc(C)c(Cc4ccc(Cl)cc4F)n3n2)n[nH]1 [gandotinib]
In short: as §1

tozasertib = compound: Cc1cc(Nc2cc(N3CCN(C)CC3)nc(Sc3ccc(NC(=O)C4CC4)cc3)n2)n[nH]1 [tozasertib]
In short: as §1

doramapimod = compound: Cc1ccc(-n2nc(C(C)(C)C)cc2NC(=O)Nc2ccc(OCCN3CCOCC3)c3ccccc23)cc1 [doramapimod]
In short: as §1

bafetinib = compound: Cc1ccc(NC(=O)c2ccc(CN3CC[C@H](N(C)C)C3)c(C(F)(F)F)c2)cc1Nc1nccc(-c2cncnc2)n1 [bafetinib]
In short: as §1

[2] = compound: Cc1cccc(CC(=O)N2CCc3c2ccc(-c2cn(C)c4ncnc(N)c24)c3F)n1
In short: as §1

nilotinib = compound: Cc1cn(-c2cc(NC(=O)c3ccc(C)c(Nc4nccc(-c5cccnc5)n4)c3)cc(C(F)(F)F)c2)cn1 [nilotinib]
In short: as §1

[3] = compound: Cc1nc(Nc2n[nH]c3c2CN(C(=O)N[C@H](CN(C)C)c2ccccc2)C3(C)C)c2sccc2n1
In short: as §1

dasatinib = compound: Cc1nc(Nc2ncc(C(=O)Nc3c(C)cccc3Cl)s2)cc(N2CCN(CCO)CC2)n1 [dasatinib]
In short: as §1

[4] = compound: Cc1ncc(-c2ccnc(Nc3ccc(S(C)(=O)=O)cc3)n2)n1C(C)C
In short: as §1

[5] = compound: Cn1cc(-c2ccc3c(c2)CCN3C(=O)Cc2cccc(C(F)(F)F)c2)c2c(N)ncnc21
In short: as §1

quisinostat = compound: Cn1cc(CNCC2CCN(c3ncc(C(=O)NO)cn3)CC2)c2ccccc21 [quisinostat]
In short: as §1

tipifarnib = compound: Cn1cncc1[C@@](N)(c1ccc(Cl)cc1)c1ccc2c(c1)c(-c1cccc(Cl)c1)cc(=O)n2C [tipifarnib]
In short: as §1

[6] = compound: NC(=O)Nc1cc(-c2cccc(F)c2)sc1C(=O)N[C@H]1CCCNC1
In short: as §1

[7] = compound: NC(=O)c1cnc(N[C@@H]2CCCC[C@@H]2N)nc1Nc1cccc(-n2nccn2)c1
In short: as §1

[8] = compound: NC1(c2ccc(-c3nc4ccn5c(=O)[nH]nc5c4cc3-c3ccccc3)cc2)CCC1
In short: as §1

Row | Target | log2 fold change (lapatinib) | log2 fold change (pictilisib) | log2 fold change (crizotinib) | log2 fold change [1] | log2 fold change (duvelisib) | log2 fold change (gandotinib) | log2 fold change (tozasertib) | log2 fold change (doramapimod) | log2 fold change (bafetinib) | log2 fold change [2] | log2 fold change (nilotinib) | log2 fold change [3] | log2 fold change (dasatinib) | log2 fold change [4] | log2 fold change [5] | log2 fold change (quisinostat) | log2 fold change (tipifarnib) | log2 fold change [6] | log2 fold change [7] | log2 fold change [8]
1 | MAGI1 isoform 6 (UniProt Q96QZ7) | inactive: -0.023 | inactive: -0.002 | inactive: -0.005 | inactive: -0.059 | inactive: 0.017 | inactive: -0.127 | inactive: -0.016 | inactive: 0.056 | inactive: 0.033 | inactive: 0.027 | inactive: -0.032 | inactive: -0.024 | inactive: -0.015 | inactive: -0.033 | inactive: 0.005 | inactive: -0.004 | inactive: 0.043 | inactive: -0.037 | inactive: -0.018 | inactive: 0.01
2 | MARK2 (UniProt E9PC69) | inactive: 0.003 | inactive: 0.052 | inactive: -0.14 | inactive: 0.131 | inactive: -0.068 | inactive: -0.166 | inactive: -0.233 | inactive: 0.075 | inactive: -0.071 | inactive: 0.025 | inactive: 0.019 | inactive: 0.034 | inactive: -0.03 | inactive: 0.012 | inactive: -0.047 | inactive: 0.031 | inactive: -0.019 | inactive: -0.065 | inactive: 0.002 | inactive: -0.183
3 | LYPLAL1 (UniProt Q5VWZ2) | inactive: -0.006 | inactive: -0.013 | inactive: 0.094 | inactive: -0.043 | inactive: 0.003 | inactive: 0.003 | inactive: 0.006 | inactive: -0.037 | inactive: -0.014 | inactive: 0.021 | inactive: -0.026 | inactive: -0.023 | inactive: -0.009 | inactive: 0.018 | inactive: 0.001 | inactive: 0.025 | inactive: 0.045 | inactive: -0.012 | inactive: -0.024 | inactive: 0.026
4 | MAT2B (UniProt Q9NZL9) | inactive: 0.008 | inactive: -0.028 | inactive: 0.007 | inactive: 0.063 | inactive: -0.031 | inactive: -0.02 | inactive: 0.019 | inactive: -0.023 | inactive: -0.007 | inactive: 0.005 | inactive: 0.002 | inactive: -0.014 | inactive: -0.023 | inactive: -0.024 | inactive: -0.007 | inactive: 0.021 | inactive: 0.02 | inactive: -0.005 | inactive: 0.04 | inactive: 0.009
5 | LTBP4 (UniProt Q8N2S1) | inactive: 0.068 | inactive: -0.073 | inactive: -0.074 | inactive: -0.119 | inactive: 0.021 | inactive: 0.2 | inactive: 0.015 | inactive: -0.029 | inactive: 0.129 | inactive: 0.062 | inactive: -0.094 | inactive: -0.095 | inactive: 0.076 | inactive: 0.101 | inactive: -0.027 | inactive: -0.056 | inactive: 0.061 | inactive: 0.051 | inactive: -0.01 | inactive: -0.005
6 | MACO1 (UniProt Q8N5G2) | inactive: 0.016 | inactive: 0.041 | inactive: 0.003 | inactive: -0.019 | inactive: 0.015 | inactive: -0.008 | inactive: 0.138 | inactive: -0.035 | inactive: -0.001 | inactive: -0.001 | inactive: -0.003 | inactive: 0.017 | inactive: -0.092 | inactive: 0.066 | inactive: 0.004 | inactive: 0.042 | inactive: 0.042 | inactive: 0.033 | inactive: -0.02 | inactive: 0.054
7 | MAP7 (UniProt Q14244) | inactive: 0.018 | inactive: -0.002 | inactive: 0.07 | inactive: -0.045 | inactive: -0.064 | inactive: 0.126 | inactive: -0.03 | inactive: 0.11 | inactive: 0 | inactive: 0.022 | inactive: 0.052 | inactive: -0.097 | inactive: 0.058 | inactive: -0.09 | inactive: 0.023 | inactive: -0.002 | inactive: -0.038 | inactive: 0.024 | inactive: -0.027 | inactive: -0.168
8 | MAP3K20 (UniProt Q9NYL2) | inactive: 0.015 | inactive: -0.006 | inactive: -0.01 | inactive: 0.029 | inactive: -0.061 | inactive: -0.121 | inactive: -0.028 | inactive: 0.025 | inactive: -0.224 | inactive: -0.016 | inactive: -0.09 | inactive: 0.022 | inactive: -0.069 | inactive: 0.012 | inactive: -0.045 | inactive: -0.06 | inactive: 0.003 | inactive: 0.021 | inactive: 0.009 | inactive: -0.047
9 | MAN2B2 (UniProt Q9Y2E5) | inactive: 0.01 | inactive: 0.021 | inactive: 0 | active: 0.595 | inactive: -0.018 | inactive: -0.38 | inactive: 0.003 | inactive: -0.028 | inactive: -0.12 | active: -0.546 | inactive: -0.039 | inactive: -0.173 | inactive: 0.051 | inactive: -0.004 | inactive: 0.011 | inactive: -0.033 | inactive: -0.041 | inactive: 0.04 | inactive: 0.038 | inactive: 0.033
10 | LYPLA2 (UniProt O95372) | inactive: 0.121 | inactive: -0.012 | inactive: 0.005 | inactive: 0.138 | inactive: 0.016 | inactive: -0.096 | inactive: -0.028 | inactive: 0.012 | inactive: 0.039 | inactive: -0.035 | inactive: 0.041 | inactive: -0.032 | inactive: 0.047 | inactive: 0.133 | inactive: -0.001 | inactive: 0.069 | inactive: 0.005 | inactive: -0.036 | inactive: -0.062 | inactive: -0.02
11 | MAP7D1 (UniProt Q3KQU3) | inactive: 0.005 | inactive: 0 | inactive: -0.015 | inactive: -0.026 | inactive: 0 | inactive: 0.013 | inactive: 0.008 | inactive: 0.027 | inactive: -0.031 | inactive: 0.029 | inactive: 0.001 | inactive: -0.018 | inactive: -0.004 | inactive: 0.039 | inactive: 0.03 | inactive: -0.028 | inactive: 0.008 | inactive: 0.02 | inactive: -0.037 | inactive: -0.01
12 | MAN2A1 (UniProt Q16706) | inactive: 0.036 | inactive: -0.007 | inactive: 0 | inactive: -0.019 | inactive: 0.01 | inactive: -0.023 | inactive: 0.025 | inactive: -0.006 | inactive: 0.008 | inactive: -0.017 | inactive: 0.026 | inactive: -0.022 | inactive: -0.015 | inactive: -0.001 | inactive: 0.016 | inactive: -0.01 | inactive: -0.032 | inactive: 0.019 | inactive: -0.002 | inactive: 0.008
13 | MAP3K7 (UniProt O43318) | inactive: -0.006 | inactive: -0.016 | inactive: -0.007 | inactive: 0.001 | inactive: -0.003 | inactive: 0.013 | inactive: -0.028 | inactive: 0.146 | inactive: 0.025 | inactive: -0.043 | inactive: -0.012 | inactive: 0.033 | inactive: -0.011 | inactive: 0.092 | inactive: -0.02 | inactive: -0.119 | inactive: -0.007 | inactive: 0.057 | inactive: -0.022 | inactive: -0.033
14 | LYSMD1 (UniProt Q96S90) | inactive: 0.009 | inactive: 0.011 | inactive: 0.016 | inactive: -0.031 | inactive: 0.012 | inactive: 0.081 | inactive: 0.011 | inactive: 0.075 | inactive: -0.016 | inactive: -0.017 | inactive: -0.002 | inactive: -0.022 | inactive: -0.035 | inactive: 0.006 | inactive: 0.021 | inactive: -0.07 | inactive: 0.019 | inactive: 0.019 | inactive: 0.018 | inactive: -0.014
15 | MAP7D3 (UniProt Q8IWC1) | inactive: 0.033 | inactive: 0.01 | inactive: -0.006 | inactive: -0.055 | inactive: -0.068 | inactive: 0.021 | inactive: 0.066 | inactive: 0.065 | inactive: -0.128 | inactive: 0.06 | inactive: -0.012 | inactive: -0.01 | inactive: 0.03 | inactive: -0.037 | inactive: 0.029 | inactive: -0.101 | inactive: 0.014 | inactive: 0.003 | inactive: -0.016 | inactive: 0.005
16 | MAP4 (UniProt E7EVA0) | inactive: 0.002 | inactive: -0.054 | inactive: -0.163 | inactive: -0.096 | inactive: 0.012 | inactive: 0.007 | inactive: 0.055 | inactive: 0.017 | inactive: -0.055 | inactive: 0.008 | inactive: 0.073 | inactive: 0.021 | inactive: -0.009 | inactive: 0.046 | inactive: 0.057 | active: -0.271 | inactive: -0.031 | inactive: 0.024 | inactive: 0.016 | inactive: -0.1

Single records (already shown). Values in the order: log2 fold change (lapatinib) | log2 fold change (pictilisib) | log2 fold change (crizotinib) | log2 fold change [1] | log2 fold change (duvelisib) | log2 fold change (gandotinib) | log2 fold change (tozasertib) | log2 fold change (doramapimod) | log2 fold change (bafetinib) | log2 fold change [2] | log2 fold change (nilotinib) | log2 fold change [3] | log2 fold change (dasatinib) | log2 fold change [4] | log2 fold change [5] | log2 fold change (quisinostat) | log2 fold change (tipifarnib) | log2 fold change [6] | log2 fold change [7] | log2 fold change [8]
MARK2 (UniProt E9PC69) is listed as inactive: 0.003 | inactive: 0.052 | inactive: -0.14 | inactive: 0.131 | inactive: -0.068 | inactive: -0.166 | inactive: -0.233 | inactive: 0.075 | inactive: -0.071 | inactive: 0.025 | inactive: 0.019 | inactive: 0.034 | inactive: -0.03 | inactive: 0.012 | inactive: -0.047 | inactive: 0.031 | inactive: -0.019 | inactive: -0.065 | inactive: 0.002 | inactive: -0.183
MAT2B (UniProt Q9NZL9) is listed as inactive: 0.008 | inactive: -0.028 | inactive: 0.007 | inactive: 0.063 | inactive: -0.031 | inactive: -0.02 | inactive: 0.019 | inactive: -0.023 | inactive: -0.007 | inactive: 0.005 | inactive: 0.002 | inactive: -0.014 | inactive: -0.023 | inactive: -0.024 | inactive: -0.007 | inactive: 0.021 | inactive: 0.02 | inactive: -0.005 | inactive: 0.04 | inactive: 0.009

Source: the supplement of paper PMC10849652
